The values below come from publication PMC11675670.

Amino acid sequences for entries named in this document (tags omitted).
UniProt Q01094: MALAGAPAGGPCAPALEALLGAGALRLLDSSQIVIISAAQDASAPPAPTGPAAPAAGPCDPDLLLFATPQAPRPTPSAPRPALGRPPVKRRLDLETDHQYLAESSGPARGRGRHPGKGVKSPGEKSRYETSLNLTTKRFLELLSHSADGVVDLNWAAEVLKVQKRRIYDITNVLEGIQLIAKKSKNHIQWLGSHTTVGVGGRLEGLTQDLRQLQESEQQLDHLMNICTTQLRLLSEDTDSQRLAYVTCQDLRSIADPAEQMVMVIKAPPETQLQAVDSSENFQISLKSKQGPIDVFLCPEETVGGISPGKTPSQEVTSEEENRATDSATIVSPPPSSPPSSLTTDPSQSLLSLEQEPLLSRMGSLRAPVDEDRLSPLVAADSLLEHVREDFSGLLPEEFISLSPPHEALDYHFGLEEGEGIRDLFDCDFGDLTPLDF
UniProt Q92841: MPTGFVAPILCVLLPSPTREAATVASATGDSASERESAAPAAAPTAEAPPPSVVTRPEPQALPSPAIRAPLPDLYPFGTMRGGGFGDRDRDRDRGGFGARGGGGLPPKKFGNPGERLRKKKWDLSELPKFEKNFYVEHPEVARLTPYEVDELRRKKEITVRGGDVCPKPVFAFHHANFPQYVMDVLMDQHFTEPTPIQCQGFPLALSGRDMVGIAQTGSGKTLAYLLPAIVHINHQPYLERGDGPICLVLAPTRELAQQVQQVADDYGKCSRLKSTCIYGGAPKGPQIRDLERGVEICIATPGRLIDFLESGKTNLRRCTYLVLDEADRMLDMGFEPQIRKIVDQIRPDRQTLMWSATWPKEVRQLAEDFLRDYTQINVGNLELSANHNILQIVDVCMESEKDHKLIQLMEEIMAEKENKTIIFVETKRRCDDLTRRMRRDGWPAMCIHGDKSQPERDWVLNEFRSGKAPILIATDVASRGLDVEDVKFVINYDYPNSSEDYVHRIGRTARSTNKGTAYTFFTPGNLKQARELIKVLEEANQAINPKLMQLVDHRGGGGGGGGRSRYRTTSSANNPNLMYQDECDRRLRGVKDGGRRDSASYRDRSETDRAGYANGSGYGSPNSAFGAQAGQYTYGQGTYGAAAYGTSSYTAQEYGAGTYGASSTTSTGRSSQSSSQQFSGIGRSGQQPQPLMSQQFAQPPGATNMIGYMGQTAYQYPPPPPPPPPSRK
UniProt P17844: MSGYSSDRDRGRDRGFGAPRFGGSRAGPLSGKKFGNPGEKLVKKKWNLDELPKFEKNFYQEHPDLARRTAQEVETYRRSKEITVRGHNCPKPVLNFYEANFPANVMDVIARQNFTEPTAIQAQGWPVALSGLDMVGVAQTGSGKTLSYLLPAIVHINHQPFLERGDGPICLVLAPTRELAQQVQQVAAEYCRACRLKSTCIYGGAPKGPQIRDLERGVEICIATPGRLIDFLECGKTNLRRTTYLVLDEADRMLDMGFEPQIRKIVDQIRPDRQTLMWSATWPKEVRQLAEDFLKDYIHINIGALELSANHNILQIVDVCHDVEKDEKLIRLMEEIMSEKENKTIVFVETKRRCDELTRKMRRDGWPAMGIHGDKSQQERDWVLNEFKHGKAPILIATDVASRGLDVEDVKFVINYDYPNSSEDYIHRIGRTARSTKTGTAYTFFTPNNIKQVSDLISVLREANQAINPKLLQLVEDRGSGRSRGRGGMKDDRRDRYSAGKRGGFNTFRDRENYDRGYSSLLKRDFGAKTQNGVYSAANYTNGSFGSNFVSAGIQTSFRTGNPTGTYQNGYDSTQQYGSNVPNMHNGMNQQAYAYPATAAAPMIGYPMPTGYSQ
UniProt Q01844: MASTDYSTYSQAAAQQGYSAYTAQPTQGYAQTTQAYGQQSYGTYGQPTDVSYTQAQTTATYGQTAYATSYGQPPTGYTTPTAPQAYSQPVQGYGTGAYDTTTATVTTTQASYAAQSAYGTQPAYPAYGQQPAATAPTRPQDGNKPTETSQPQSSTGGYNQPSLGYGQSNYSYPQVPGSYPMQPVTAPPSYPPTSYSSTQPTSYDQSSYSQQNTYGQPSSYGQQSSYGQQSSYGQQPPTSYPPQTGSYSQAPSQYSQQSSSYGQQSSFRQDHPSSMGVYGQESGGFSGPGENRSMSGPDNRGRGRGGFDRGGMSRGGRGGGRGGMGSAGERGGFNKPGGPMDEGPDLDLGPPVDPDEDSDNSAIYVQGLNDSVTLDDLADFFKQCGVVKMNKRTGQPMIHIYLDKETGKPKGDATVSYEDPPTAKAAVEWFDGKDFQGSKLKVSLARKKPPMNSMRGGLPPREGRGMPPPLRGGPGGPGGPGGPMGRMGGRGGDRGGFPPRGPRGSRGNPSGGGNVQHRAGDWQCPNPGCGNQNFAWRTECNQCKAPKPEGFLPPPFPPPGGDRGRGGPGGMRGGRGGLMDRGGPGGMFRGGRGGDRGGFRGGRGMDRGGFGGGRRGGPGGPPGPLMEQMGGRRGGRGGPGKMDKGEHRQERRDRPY
UniProt P35637: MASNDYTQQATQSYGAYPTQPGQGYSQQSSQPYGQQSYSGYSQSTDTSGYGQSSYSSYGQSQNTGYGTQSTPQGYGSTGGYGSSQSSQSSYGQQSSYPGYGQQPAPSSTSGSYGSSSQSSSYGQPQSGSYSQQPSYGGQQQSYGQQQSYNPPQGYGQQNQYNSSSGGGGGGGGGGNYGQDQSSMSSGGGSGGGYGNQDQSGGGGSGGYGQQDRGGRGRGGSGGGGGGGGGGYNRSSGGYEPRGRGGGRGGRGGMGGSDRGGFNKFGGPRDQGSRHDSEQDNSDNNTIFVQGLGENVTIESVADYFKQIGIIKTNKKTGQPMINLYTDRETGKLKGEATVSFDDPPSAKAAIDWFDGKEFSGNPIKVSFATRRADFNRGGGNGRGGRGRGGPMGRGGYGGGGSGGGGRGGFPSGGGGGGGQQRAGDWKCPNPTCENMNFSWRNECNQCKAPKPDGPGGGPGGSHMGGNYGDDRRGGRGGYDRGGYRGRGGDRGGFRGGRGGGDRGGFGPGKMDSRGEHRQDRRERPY
UniProt Q15208: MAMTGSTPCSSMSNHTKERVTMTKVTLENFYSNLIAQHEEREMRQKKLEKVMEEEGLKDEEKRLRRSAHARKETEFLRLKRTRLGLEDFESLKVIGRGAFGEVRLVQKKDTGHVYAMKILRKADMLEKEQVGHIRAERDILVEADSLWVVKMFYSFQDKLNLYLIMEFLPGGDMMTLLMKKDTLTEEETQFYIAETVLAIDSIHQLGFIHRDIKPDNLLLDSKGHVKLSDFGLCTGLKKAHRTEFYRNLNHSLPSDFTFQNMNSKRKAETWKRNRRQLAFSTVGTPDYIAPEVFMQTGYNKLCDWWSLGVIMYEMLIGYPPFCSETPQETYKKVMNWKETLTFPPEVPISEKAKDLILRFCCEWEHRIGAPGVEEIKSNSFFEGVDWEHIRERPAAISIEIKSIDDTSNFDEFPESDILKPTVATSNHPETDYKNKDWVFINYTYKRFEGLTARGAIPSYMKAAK
UniProt Q14186: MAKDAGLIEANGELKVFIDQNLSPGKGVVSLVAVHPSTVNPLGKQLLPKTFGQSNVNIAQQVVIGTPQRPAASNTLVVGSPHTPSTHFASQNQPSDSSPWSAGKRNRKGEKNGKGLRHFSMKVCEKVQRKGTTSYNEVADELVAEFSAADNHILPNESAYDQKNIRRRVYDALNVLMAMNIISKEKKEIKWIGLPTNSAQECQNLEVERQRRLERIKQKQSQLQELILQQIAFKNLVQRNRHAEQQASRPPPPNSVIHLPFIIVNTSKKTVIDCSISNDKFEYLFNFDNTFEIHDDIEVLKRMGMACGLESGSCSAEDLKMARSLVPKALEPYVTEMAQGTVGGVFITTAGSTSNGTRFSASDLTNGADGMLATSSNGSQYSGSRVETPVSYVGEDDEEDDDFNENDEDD

This experiment addresses 3xFLAG-tagged E2F1 (UniProt Q01094). Kind of experiment: affinity purification with mass spectrometry; 3xFLAG-E2F1 induced or not with Doxycyclin (1 ug/mL) in T-REx-HeLa-3xFLAG-E2F1 cells; nuclear extracts (Dignam method) immunoprecipitated with anti-FLAG M2 affinity beads, eluted with SDS sample buffer, SDS-PAGE, whole lanes cut in three pieces …; proteins enriched in the induced sample.

These are yes or no findings as the source states them, for the method shown. Binding seen in cells or lysates may run through a third protein. These calls come from enrichment with a bait or labelling near it, and not all partners need be listed.

For the molecule “DEAD-box helicase 17 (from UniProt Q92841 1-729)”, the binding result is “binds”.
Consider “DEAD/H box 5 (DDX5) (from UniProt P17844 1-614)”, for which the binding result is “binds”.
With “EWS RNA binding protein 1 (from UniProt Q01844 1-656)”, the binding entry is “binds”.
As for “FUS RNA binding protein (from UniProt P35637 1-526)”, the entry is “binds”; as for “serine/threonine kinase 38 (from UniProt Q15208 1-465)”, “binds”; as for “transcription factor Dp-1 (from UniProt Q14186 1-410)”, “binds”.

B1: transcription factor Dp-2 (protein, UniProt Q14188 1-446)
chain: MTAKNVGLTSTNAEVRGFIDQNLSPTKGNISFVAFPVSNTNSPTKILPKTLGPINVNVGPQMIISTPQRLTSSGSVLIGSPYTPAPAMVTQTHIAEATGWVPGDRKRARKFIDSDFSESKRSKKGDKNGKGLRHFSMKVCEKVQRKGTTSYNEVADELVSEFTNSNNHLAADSAYDQKNIRRRVYDALNVLMAMNIISKEKKEIKWIGLPTNSAQECQNLEIEKQRRIERIKQKRAQLQELLLQQIAFKNLVQRNRQNEQQNQGPPALNSTIQLPFIIINTSRKTVIDCSISSDKFEYLFNFDNTFEIHDDIEVLKRMGMSFGLESGKCSLEDLKLAKSLVPKALEGYITDISTGPSWLNQGLLLNSTQSVSNLDLTTGATLPQSSVNQGLCLDAEVALATGQFLAPNSHQSSSAASHCSESRGETPCSFNDEDEEDDEEDSSSPE
On to B1, for which the binding result is recorded as “binds”.
